These results are taken from paper PMC8278772.

The test has as its target Canavalia rosea plasma membrane intrinsic protein CrPIP2;3 (Canavalia rosea). Put plainly: two-hybrid; pGBKT7 (BD) bait and pGADT7 (AD) prey plasmids co-transformed in pairs into yeast AH109; plated on SD/-Leu-Trp and SD/-Leu-Trp-His; spots supplemented with 40 ug/mL X-alpha-Gal; repeated three times.

These are yes or no findings as the source states them, for the method shown. Binding can be weak; no strength is given.

Take “Canavalia rosea plasma membrane intrinsic protein CrPIP1;5 (from UniProt A0A8F4X4X8)”: the binding entry is “binds”.
